# Values from PubChem BioAssay AID1259254 (NCATS, 2017).
# Assay: 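Genome-wide screen for genes that prevent DNA re-replication in cancer cells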 (primary screen)
# Cell system: human HCT116 colorectal cancer cells
# Knock-down reagent: single siRNA against human genes
# Time to read-out: 3 days
# Detection: 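Imaged Hoechst DNA stain sorts each cell into a cycle phase by DNA amount; per plate, G2 fraction set to 0% for non-targeting and 100% for GMNN siRNA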
# Scale: G2 robust z-score: higher = more G2 cells, more excess DNA replication
# Active means: 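An siRNA counts as active if its G2 robust z-score lies at least 5 MADs above the screen median; here such calls match roughly 38% of GMNN control or more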
# This is a random part of about 59,000 reagents tested. In the full data, about 1,550 (2.6%) were called active. 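G2 share is only a proxy for re-replication; each gene was hit by three separate siRNAs, and active genes were retested.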 The numbers tell different reagents against one gene apart. Not all columns of the deposit are shown. No sequences are given here. The record does not give: the amount of reagent.
gene symbol,reagent no.,G2 robust z-score,outcome
TKTL1 (transketolase like 1),1,3.82,inactive
TKTL1 (transketolase like 1),2,0.667,inactive
TKTL1 (transketolase like 1),3,1.17,inactive
EHF (ETS homologous factor),1,1.96,inactive
EHF (ETS homologous factor),2,1.03,inactive
EHF (ETS homologous factor),3,0.571,inactive
ELOVL1 (ELOVL fatty acid elongase 1),1,0.473,inactive
ELOVL1 (ELOVL fatty acid elongase 1),2,-0.382,inactive
ELOVL1 (ELOVL fatty acid elongase 1),3,-1.07,inactive
ZNF239 (zinc finger protein 239),1,-0.352,inactive
ZNF239 (zinc finger protein 239),2,-0.414,inactive
ZNF239 (zinc finger protein 239),3,-0.0519,inactive
ZNF3 (zinc finger protein 3),1,1.59,inactive
ZNF3 (zinc finger protein 3),2,-0.0555,inactive
ZNF3 (zinc finger protein 3),3,-0.355,inactive
TNIP1 (TNFAIP3 interacting protein 1),1,1.95,inactive
TNIP1 (TNFAIP3 interacting protein 1),2,2.03,inactive
TNIP1 (TNFAIP3 interacting protein 1),3,-0.751,inactive
CYTH1 (cytohesin 1),1,-1.5,inactive
CYTH1 (cytohesin 1),2,2.5,inactive
CYTH1 (cytohesin 1),3,-0.259,inactive
OSBPL2 (oxysterol binding protein like 2),1,2.75,inactive
OSBPL2 (oxysterol binding protein like 2),2,-0.549,inactive
OSBPL2 (oxysterol binding protein like 2),3,-0.566,inactive
KLHL31 (kelch like family member 31),1,-0.452,inactive
KLHL31 (kelch like family member 31),2,-0.408,inactive
KLHL31 (kelch like family member 31),3,0.394,inactive
FGF18 (fibroblast growth factor 18),1,0.813,inactive
FGF18 (fibroblast growth factor 18),2,1.71,inactive
FGF18 (fibroblast growth factor 18),3,-0.923,inactive

No new results follow: 5 of the entries above.
gene symbol,reagent no.,G2 robust z-score,outcome
KLHL31 (kelch like family member 31),1,-0.452,inactive
KLHL31 (kelch like family member 31),2,-0.408,inactive
KLHL31 (kelch like family member 31),3,0.394,inactive
FGF18 (fibroblast growth factor 18),1,0.813,inactive
FGF18 (fibroblast growth factor 18),2,1.71,inactive
